PubChem BioAssay AID504808 – Drosophila RNAi Screening Center | 2011
In all, the deposit lists about 21,000 reagents; below is a random part of those that have a named target and a result. Of all reagents, 18 (0.084%) got an active call. 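Raw counts without plate normalisation, one of two replicates; the ratio scores behind the calls were not deposited.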 Unmarked entries are inactive. Reagents against one gene are numbered here. Not stated in the record: the amount of reagent, the time to read-out.

Test: 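Chromatin factors that keep E2F targets switched off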 (primary screen)
System: Drosophila S2 cells
Reagents: long dsRNA against Drosophila genes
Measurement: 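Dual luciferase plate measurements; E2F-specific signal taken as firefly over Renilla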
Scale: E2F firefly: higher = more E2F reporter activity; Renilla normaliser: higher = more normaliser reporter signal
Hit rule: 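Called active if the normalised E2F reporter went up by over 50%; the cutoff is arbitrary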

CG31546 showed E2F firefly, rep 1 = 59643; Renilla normaliser, rep 1 = 2983.
Knock-down of CG6454 gave: E2F firefly, rep 1 = 61818; Renilla normaliser, rep 1 = 3108.
Against Atf-2 #1, the values are E2F firefly, rep 1 = 83739; Renilla normaliser, rep 1 = 3247.
Depletion of Atf-2 #2 came out at: E2F firefly, rep 1 = 52143; Renilla normaliser, rep 1 = 2503.
Against CG1368 the deposit lists E2F firefly, rep 1 = 8302; Renilla normaliser, rep 1 = 848.
CG8586 gave E2F firefly, rep 1 = 2826; Renilla normaliser, rep 1 = 218.
For mip130, the entry reads E2F firefly, rep 1 = 90408; Renilla normaliser, rep 1 = 5996.
With knock-down of CG13042 the results were E2F firefly, rep 1 = 1.69e5; Renilla normaliser, rep 1 = 8033.
After knock-down of Cyp49a1 #1, the screen gave E2F firefly, rep 1 = 1.48e5; Renilla normaliser, rep 1 = 5089.
For Cyp49a1 #2, the entry reads E2F firefly, rep 1 = 1.40e5; Renilla normaliser, rep 1 = 5006.
Silencing of ATPsyndelta came out at: E2F firefly, rep 1 = 98931; Renilla normaliser, rep 1 = 5570.
mamo showed E2F firefly, rep 1 = 1.23e5; Renilla normaliser, rep 1 = 15622.

Already shown: entries from further up.
ATPsyndelta → E2F firefly, rep 1 = 98931; Renilla normaliser, rep 1 = 5570
mamo → E2F firefly, rep 1 = 1.23e5; Renilla normaliser, rep 1 = 15622
